Assay [1] deals with T1, full length TRAF6 fused to the GAL4 DNA binding domain (pM-TRAF6 full length, expressed in 293/EBNA cells) (yeast; human, UniProt P04386 1-147; Q9Y4K3 1-522).
T1 construct: Mammalian two-hybrid construct; also called TRAF6-fusion protein
The experiment in a line: mammalian two-hybrid assay, luciferase reporter, 293/EBNA cells. Background: Reporter assays use an easily measured gene product as a stand-in for the process of interest.

In assay [2] the target is Full length TRAF 2 (amino acid 1-501) in bait vector pGBT9 (yeast, UniProt P04386 1-147; Q12933 1-501). The assay is described as follows: yeast two-hybrid, filter β-galactosidase assay.
Assay [3] addresses Full length TRAF 3 (amino acid 1-569) in bait vector pGBT9 (yeast, UniProt P04386 1-147; Q13114 1-568). The assay is described as follows: yeast two-hybrid, filter β-galactosidase assay.
Assay [4] concerns the target TRAF 3 dm (amino acid 1-268) in bait vector pGBT9 (yeast, UniProt P04386 1-147; Q13114 1-268). The assay is described as follows: yeast two-hybrid, filter β-galactosidase assay.
For assay [5], the target named is T2, DNA binding domain of GAL4 (pGBT9 vector, empty bait) (yeast, UniProt P04386 1-147).
T2 construct: Control bait
The experiment in a line: yeast two-hybrid, filter β-galactosidase assay, empty bait vector.

B1: full length TRAF6-inhibiting protein fused to the VP16 transcription activation domain (pVP16-TBZF, expressed in 293/EBNA cells) (other)
chain: MGLLTFRDVAIEFSLEEWQCLDTAQRNLCKNVILENYRNLVFLGIAVSKQDLITCLEQEKEPLTVKRHEMVNEPPVMCSHFAQEFWPEQNIKDSFEKVTLRRYEKCGNDNFQLKGCKSVDECKVHKGGYNGLNQCLPTMQSKMFQCDEYVKVFNKFSHSDRHKIKHMENKPFKCKECGRSFCMLSHLTRHERNYTKVNFCKCEECEKAVNQSSKLTKHKRIYTCEKLYKCQECDRTFNQFSNLTEYKKDYAREKPYKCEECGKAFNQSSHLTTHKIIHTGEKPYKCEECGKASNQFSNLTTHKKIHTGEQPYICEECGKAFTQSSTLTTHKRIHTGEKPYKCEECGKAFNRSSKLTEHKNIHTGEQPYKCEECGKAFNRSSNLTEHRKIHTEEKPYKCKECGKAFKHSSALTTHKRIHTGEKPYKCEECGKAFNRSSKLTEYKKLHTGKKPYKCEECGKAFIQSSKLTEHKKIHSGEIPYKCEECGKAFKHSSSLTTHKRIHTGEKPYKCEECSKAFSRSSKLTEHKIIHTGEKPYECERCDKAFNQSANLTKHKKIHTGEKLQNWNV
notes: Mammalian two-hybrid construct
As to B1, the binding result in assay [1] is reported as “binds”.

B2: recombinant TRAF6-inhibiting protein fused with the transcription activation domain of GAL4 (full length cDNA in pGAD424, expressed in yeast Y190) (other, not shown: large carriers)
chain: B1 chain
notes: also called TBZF
Turning to B2, the binding result in assay [2], in assay [3], in assay [4] and in assay [5] was “no binding” throughout.

The record behind these values is patent US20040109854A1 (published 2004).
